# Reference: the supplement of paper PMC4604168 (melanoma cell lines)
# The list shows a part of the results. Repeats are few or missing, and single values can be far off.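 Imaging used 1,536-well plates; nuclei positive for cleaved PARP by antibody were divided by total DNA-stained nuclei to yield the apoptosis fraction. Doses for screening kept most cells viable, and cell lines differ markedly in resting and induced cleaved-PARP levels.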
# Assays:
# Assay in all cases: cleaved PARP positive nuclei fraction relative to DMSO control; melanoma cells; higher = more apoptosis
# Details in all cases: library dose: low library concentration; 72 h
# [1] = tested on: WM115
# [2] = tested on: WM1716
# [3] = tested on: WM1745
# [4] = tested on: WM3526
# [5] = tested on: WM3619
# [6] = tested on: WM451Lu
SMILES,cleaved PARP positive nuclei fraction [1],cleaved PARP positive nuclei fraction [2],cleaved PARP positive nuclei fraction [3],cleaved PARP positive nuclei fraction [4],cleaved PARP positive nuclei fraction [5],cleaved PARP positive nuclei fraction [6]
"CS(=O)(=O)c1ccc(C(=O)Nc2ccc(Cl)c(-c3ccccn3)c2)c(Cl)c1 [vismodegib] + O=C(Oc1ccc([N+](=O)[O-])cc1)N1CCC(C(O)(c2ccc3c(c2)OCO3)c2ccc3c(c2)OCO3)CC1 [JZL184] (first compound 1 µM, partner dose 1 µM)",181%,26.7%,76.6%,87.5%,186%,69.5%
"Cn1cnc2c(F)c(Nc3ccc(Br)cc3Cl)c(C(=O)NOCCO)cc21 [selumetinib] + Cc1cc(SCc2sc(-c3ccc(C(F)(F)F)c(F)c3)nc2C)ccc1OCC(=O)O [GW0742] (first compound 0.015 µM, partner dose 2 µM)",187%,139%,84.9%,91%,103%,62.7%
"C[As](C)SC[C@H](NC(=O)CC[C@H](N)C(=O)O)C(=O)NCC(=O)O [Darinaparsin] + Cn1c(Nc2ccc(C(F)(F)F)cc2)nc2cc(Oc3ccnc(-c4ncc(C(F)(F)F)[nH]4)c3)ccc21 [CHIR265] (first compound 0.4 µM, partner dose 0.08 µM)",507%,78%,128%,378%,132%,91.5%
"Nc1cccc2c1CN(C1CCC(=O)NC1=O)C2=O (centres undefined) [lenalidomide] + Cc1cc(SCc2sc(-c3ccc(C(F)(F)F)c(F)c3)nc2C)ccc1OCC(=O)O [GW0742] (first compound 1 µM, partner dose 2 µM)",325%,73.5%,94.5%,74.1%,75.1%,62.8%
"C[C@]12O[C@H](C[C@]1(O)CO)n1c3ccccc3c3c4c(c5c6ccccc6n2c5c31)CNC4=O [Lestaurtinib] + O=S(=O)(c1ccccc1)N(CC(F)(F)F)c1ccc(C(O)(C(F)(F)F)C(F)(F)F)cc1 [T0901317] (first compound 0.004 µM, partner dose 1.4 µM)",77.9%,22.3%,108%,63.9%,80.1%,91.3%
"N.N.[Cl][Pt][Cl] [cisplatin] + Cc1cc([N+](=O)[O-])ccc1NS(=O)(=O)c1cc(Cl)ccc1Cl [FH535] (first compound 1.6 µM, partner dose 1 µM)",150%,103%,92%,145%,92.3%,39.6%
"C[C@]12O[C@H](C[C@]1(O)CO)n1c3ccccc3c3c4c(c5c6ccccc6n2c5c31)CNC4=O [Lestaurtinib] + O=C(O)[C@@H]1[O][Sb](=[O])([O][Sb]2(=[O])[O][C@H]([C@H](O)CO)[C@H](O)[C@H](C(=O)O)[O]2)[O][C@H]([C@H](O)CO)[C@@H]1O [stibogluconate] (first compound 0.004 µM, partner dose 2 µM)",79.3%,164%,87.8%,40%,60.1%,86.7%
"CO[C@@H]1[C@H](N(C)C(=O)c2ccccc2)C[C@H]2O[C@]1(C)n1c3ccccc3c3c4c(c5c6ccccc6n2c5c31)C(=O)NC4 [Midostaurin] + Cc1cc(SCc2sc(-c3ccc(C(F)(F)F)c(F)c3)nc2C)ccc1OCC(=O)O [GW0742] (first compound 0.08 µM, partner dose 2 µM)",83.2%,133%,116%,57.6%,88.5%,57.9%
"Cc1cn(-c2cc(NC(=O)c3ccc(C)c(Nc4nccc(-c5cccnc5)n4)c3)cc(C(F)(F)F)c2)cn1 [nilotinib] + C[As](C)SC[C@H](NC(=O)CC[C@H](N)C(=O)O)C(=O)NCC(=O)O [Darinaparsin] (first compound 0.2 µM, partner dose 0.4 µM)",71%,33.8%,108%,46.1%,112%,118%
"O=S(=O)(c1ccccc1)N(CC(F)(F)F)c1ccc(C(O)(C(F)(F)F)C(F)(F)F)cc1 + C/C(O)=C(\C#N)C(=O)Nc1cc(Br)ccc1Br [LFM-A13] (first compound 1.4 µM, partner dose 2 µM)",277%,84.3%,109%,83.7%,95.2%,68.6%
"COc1ccc2c(c1)CCC1C2CCC2(C)C(NCCCCCCN3C(=O)C=CC3=O)CCC12 (centres undefined) + C/C(O)=C(\C#N)C(=O)Nc1cc(Br)ccc1Br [LFM-A13] (first compound 0.4 µM, partner dose 2 µM)",94.3%,88.4%,114%,78.1%,99.4%,394%
"Cc1cn(-c2cc(NC(=O)c3ccc(C)c(Nc4nccc(-c5cccnc5)n4)c3)cc(C(F)(F)F)c2)cn1 [nilotinib] + N.N.[Cl][Pt][Cl] [cisplatin] (first compound 0.2 µM, partner dose 1.6 µM)",139%,34.3%,103%,24.4%,119%,58.2%
"Cn1c(Nc2ccc(C(F)(F)F)cc2)nc2cc(Oc3ccnc(-c4ncc(C(F)(F)F)[nH]4)c3)ccc21 + Cc1cc(SCc2sc(-c3ccc(C(F)(F)F)c(F)c3)nc2C)ccc1OCC(=O)O [GW0742] (first compound 0.08 µM, partner dose 2 µM)",1590%,220%,147%,168%,112%,362%
"CC(=O)c1c(C)c2cnc(Nc3ccc(N4CCNCC4)cn3)nc2n(C2CCCC2)c1=O [palbociclib] + C/C(O)=C(\C#N)C(=O)Nc1cc(Br)ccc1Br [LFM-A13] (first compound 0.04 µM, partner dose 2 µM)",50.7%,194%,101%,116%,132%,211%
"Cn1cnc2c(F)c(Nc3ccc(Br)cc3Cl)c(C(=O)NOCCO)cc21 [selumetinib] + Cn1cc(C2=C(c3cn(C4CCN(Cc5ccccn5)CC4)c4ccccc34)C(=O)NC2=O)c2ccccc21 [Enzastaurin] (first compound 0.015 µM, partner dose 0.8 µM)",101%,61.5%,89.7%,49.3%,134%,23.2%
"N.N.[Cl][Pt][Cl] [cisplatin] + COC(=O)c1sccc1S(=O)(=O)Nc1ccc(Nc2ccccc2)cc1OC [GSK0660] (first compound 1.6 µM, partner dose 1 µM)",94%,92%,85.7%,58.2%,139%,30.3%
"CN(C)S(=O)(=O)c1ccc2c(c1)/C(=C/c1cc3c([nH]1)CCCC3)C(=O)N2 + C/C(O)=C(\C#N)C(=O)Nc1cc(Br)ccc1Br [LFM-A13] (first compound 0.4 µM, partner dose 2 µM)",38.1%,103%,135%,74.9%,91.1%,149%
"C[As](C)SC[C@H](NC(=O)CC[C@H](N)C(=O)O)C(=O)NCC(=O)O [Darinaparsin] + COc1cc(Nc2ncc(F)c(Nc3ccc4c(n3)NC(=O)C(C)(C)O4)n2)cc(OC)c1OC [Tamatinib] (first compound 0.4 µM, partner dose 0.4 µM)",352%,107%,141%,62.6%,131%,77.9%
"NC1(c2ccc(-c3nc4ccn5c(=O)[nH]nc5c4cc3-c3ccccc3)cc2)CCC1 + Cc1cc(SCc2sc(-c3ccc(C(F)(F)F)c(F)c3)nc2C)ccc1OCC(=O)O [GW0742] (first compound 0.4 µM, partner dose 2 µM)",330%,80.2%,90.7%,269%,105%,120%
"Nc1nc(F)nc2c1ncn2[C@@H]1O[C@H](CO)[C@@H](O)[C@@H]1O [fludarabine] + C[As](C)SC[C@H](NC(=O)CC[C@H](N)C(=O)O)C(=O)NCC(=O)O [Darinaparsin] (first compound 0.2 µM, partner dose 0.4 µM)",186%,52.9%,81.9%,1690%,97.8%,388%
"CC(C)C[C@H](NC(=O)[C@H](Cc1ccccc1)NC(=O)c1cnccn1)B(O)O [Bortezomib] + C/C(O)=C(\C#N)C(=O)Nc1cc(Br)ccc1Br [LFM-A13] (first compound 0.001 µM, partner dose 2 µM)",98.1%,608%,112%,177%,400%,82.4%
"Nc1ccn([C@@H]2O[C@H](CO)[C@@H](O)C2(F)F)c(=O)n1 [gemcitabine] + Cc1cc(SCc2sc(-c3ccc(C(F)(F)F)c(F)c3)nc2C)ccc1OCC(=O)O [GW0742] (first compound 0.0004 µM, partner dose 2 µM)",170%,215%,125%,100%,155%,70.3%
"N.N.[Cl][Pt][Cl] [cisplatin] + O=C(CCCCCCC(=O)Nc1ccccc1)NO [vorinostat] (first compound 1.6 µM, partner dose 0.08 µM)",174%,138%,111%,109%,90.9%,87.4%
"COc1ccc(-c2ccc3c(N4CCOCC4)nc(N4C[C@@H](C)O[C@@H](C)C4)nc3n2)cc1CO + O=C(Oc1ccc([N+](=O)[O-])cc1)N1CCC(C(O)(c2ccc3c(c2)OCO3)c2ccc3c(c2)OCO3)CC1 [JZL184] (first compound 0.02 µM, partner dose 1 µM)",132%,109%,102%,87.1%,94.5%,115%

# Individual results from the entries so far:
# cleaved PARP positive nuclei fraction [6] with O=S(=O)(c1ccccc1)N(CC(F)(F)F)c1ccc(C(O)(C(F)(F)F)C(F)(F)F)cc1 + C/C(O)=C(\C#N)C(=O)Nc1cc(Br)ccc1Br [LFM-A13] (first compound 1.4 µM, partner dose 2 µM) is entered as 68.6%
# cleaved PARP positive nuclei fraction [4] with N.N.[Cl][Pt][Cl] [cisplatin] + COC(=O)c1sccc1S(=O)(=O)Nc1ccc(Nc2ccccc2)cc1OC [GSK0660] (first compound 1.6 µM, partner dose 1 µM) is entered as 58.2%
